Where a chain is given by its changes, count along the chain named. Names may count otherwise. Results are given in words; binding and its absence hold for the method and conditions named. Some binding calls cover weakened binding; strength is not graded here. Sequences can lack the tags named with a protein. Each block holds one binder with its values, some of them ahead of it.
Experiments:
Assay in all cases: tandem affinity co-purification (HisTrap, Strep-Tactin) and SEC; condensin subunits overexpressed together in S. cerevisiae; HisTrap on Brn1-His12-HA3, Strep-Tactin on Smc4-StrepII3 (wash with 500 mM NaCl), Superose 6; SDS-PAGE and Coomassie staining
[1] = biological target: T1, Sc Brn1-His12-HA3 (S. cerevisiae) (UniProt P38170)
T1 sequence: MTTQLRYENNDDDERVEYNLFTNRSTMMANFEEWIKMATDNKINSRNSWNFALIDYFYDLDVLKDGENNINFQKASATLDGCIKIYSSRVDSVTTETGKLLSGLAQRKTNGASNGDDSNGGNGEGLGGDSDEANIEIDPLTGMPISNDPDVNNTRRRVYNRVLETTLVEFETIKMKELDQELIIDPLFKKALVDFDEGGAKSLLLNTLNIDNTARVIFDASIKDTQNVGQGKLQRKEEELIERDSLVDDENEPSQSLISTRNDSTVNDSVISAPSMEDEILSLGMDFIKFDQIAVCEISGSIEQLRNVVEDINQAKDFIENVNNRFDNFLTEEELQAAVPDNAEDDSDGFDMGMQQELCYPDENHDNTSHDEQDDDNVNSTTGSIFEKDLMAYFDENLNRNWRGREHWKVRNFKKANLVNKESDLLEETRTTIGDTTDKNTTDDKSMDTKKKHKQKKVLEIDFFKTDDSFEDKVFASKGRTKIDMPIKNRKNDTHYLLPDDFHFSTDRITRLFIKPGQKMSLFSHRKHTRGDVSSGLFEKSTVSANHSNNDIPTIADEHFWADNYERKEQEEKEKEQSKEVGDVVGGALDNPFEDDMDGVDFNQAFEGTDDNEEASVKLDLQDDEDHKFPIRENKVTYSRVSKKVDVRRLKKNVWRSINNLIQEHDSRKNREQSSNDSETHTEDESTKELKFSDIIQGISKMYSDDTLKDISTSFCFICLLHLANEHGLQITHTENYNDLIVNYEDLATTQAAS

[2] = biological target: T2, Sc Brn1_(BC1/2)-His12-HA3 (S. cerevisiae) (UniProt P38170)
T2 sequence: T1 sequence with K409D, R411D, K414D, K451D, K452D, K454D, K456D, K457D

[3] = biological target: T3, Sc Brn1ΦD-His12-HA3 (S. cerevisiae) (UniProt P38170)
T3 sequence: T1 sequence with M391D, F394D, W402D, W408D

- binding [1]: binds
- binding [2]: binds
- binding [3]: binds
B1: Sc Smc2 (protein, UniProt P38989 1-1170)
chain: MKVEELIIDGFKSYATRTVITDWDPQFNAITGLNGSGKSNILDAICFVLGIASMSTVRASSLQDLIYKRGQAGVTKASVTIVFDNTDKSNSPIGFTNSPQISVTRQVVLGGTSKYLINGHRAPQQSVLQLFQSVQLNINNPNFLIMQGKITKVLNMKPSEILSLIEEAAGTKMFEDRREKAERTMSKKETKLQENRTLLTEEIEPKLEKLRNEKRMFLEFQSTQTDLEKTERIVVSYEYYNIKHKHTSIRETLENGETRMKMLNEFVKKTSEEIDSLNEDVEEIKLQKEKELHKEGTISKLENKENGLLNEISRLKTSLSIKVENLNDTTEKSKALESEIASSSAKLIEKKSAYANTEKDYKMVQEQLSKQRDLYKRKEELVSTLTTGISSTGAADGGYNAQLAKAKTELNEVSLAIKKSSMKMELLKKELLTIEPKLKEATKDNELNVKHVKQCQETCDKLRARLVEYGFDPSRIKDLKQREDKLKSHYYQTCKNSEYLKRRVTNLEFNYTKPYPNFEASFVHGVVGQLFQIDNDNIRYATALQTCAGGRLFNVVVQDSQTATQLLERGRLRKRVTIIPLDKIYTRPISSQVLDLAKKIAPGKVELAINLIRFDESITKAMEFIFGNSLICEDPETAKKITFHPKIRARSITLQGDVYDPEGTLSGGSRNTSESLLVDIQKYNQIQKQIETIQADLNHVTEELQTQYATSQKTKTIQSDLNLSLHKLDLAKRNLDANPSSQIIARNEEILRDIGECENEIKTKQMSLKKCQEEVSTIEKDMKEYDSDKGSKLNELKKELKLLAKELEEQESESERKYDLFQNLELETEQLSSELDSNKTLLHNHLKSIESLKLENSDLEGKIRGVEDDLVTVQTELNEEKKRLMDIDDELNELETLIKKKQDEKKSSELELQKLVHDLNKYKSNTNNMEKIIEDLRQKHEFLEDFDLVRNIVKQNEGIDLDTYRERSKQLNEKFQELRKKVNPNIMNMIENVEKKEAALKTMIKTIEKDKMKIQETISKLNEYKRETLVKTWEKVTLDFGNIFADLLPNSFAKLVPCEGKDVTQGLEVKVKLGNIWKESLIELSGGQRSLIALSLIMALLQFRPAPMYILDEVDAALDLSHTQNIGHLIKTRFKGSQFIVVSLKEGMFANANRVFRTRFQDGTSVVSIM

- binding [1]: binds
B2: Sc Smc2_(Q147L) (protein, UniProt P38989 1-1170)
chain: B1 chain with Q147L

- binding [1]: binds
B3: Sc Smc4_(Q302L)-StrepII3 (protein, UniProt Q12267 1-1418)
chain: MSDSPLSKRQKRKSAQEPELSLDQGDAEEDSQVENRVNLSENTPEPDLPALEASYSKSYTPRKLVLSSGENRYAFSQPTNSTTTSLHVPNLQPPKTSSRGRDHKSYSQSPPRSPGRSPTRRLELLQLSPVKNSRVELQKIYDRHQSSSKQQSRLFINELVLENFKSYAGKQVVGPFHTSFSAVVGPNGSGKSNVIDSMLFVFGFRANKMRQDRLSDLIHKSEAFPSLQSCSVAVHFQYVIDESSGTSRIDEEKPGLIITRKAFKNNSSKYYINEKESSYTEVTKLLKNEGIDLDHKRFLILLGEVENIAQMKPKAEKESDDGLLEYLEDIIGTANYKPLIEERMGQIENLNEVCLEKENRFEIVDREKNSLESGKETALEFLEKEKQLTLLRSKLFQFKLLQSNSKLASTLEKISSSNKDLEDEKMKFQESLKKVDEIKAQRKEIKDRISSCSSKEKTLVLERRELEGTRVSLEERTKNLVSKMEKAEKTLKSTKHSISEAENMLEELRGQQTEHETEIKDLTQLLEKERSILDDIKLSLKDKTKNISAEIIRHEKELEPWDLQLQEKESQIQLAESELSLLEETQAKLKKNVETLEEKILAKKTHKQELQDLILDLKKKLNSLKDERSQGEKNFTSAHLKLKEMQKVLNAHRQRAMEARSSLSKAQNKSKVLTALSRLQKSGRINGFHGRLGDLGVIDDSFDVAISTACPRLDDVVVDTVECAQHCIDYLRKNKLGYARFILLDRLRQFNLQPISTPENVPRLFDLVKPKNPKFSNAFYSVLRDTLVAQNLKQANNVAYGKKRFRVVTVDGKLIDISGTMSGGGNHVAKGLMKLGTNQSDKVDDYTPEEVDKIERELSERENNFRVASDTVHEMEEELKKLRDHEPDLESQISKAEMEADSLASELTLAEQQVKEAEMAYVKAVSDKAQLNVVMKNLERLRGEYNDLQSETKTKKEKIKGLQDEIMKIGGIKLQMQNSKVESVCQKLDILVAKLKKVKSASKKSGGDVVKFQKLLQNSERDVELSSDELKVIEEQLKHTKLALAENDTNMNETLNLKVELKEQSEQLKEQMEDMEESINEFKSIEIEMKNKLEKLNSLLTYIKSEITQQEKGLNELSIRDVTHTLGMLDDNKMDSVKEDVKNNQELDQEYRSCETQDESEIKDAETSCDNYHPMNIDETSDEVSRGIPRLSEDELRELDVELIESKINELSYYVEETNVDIGVLEEYARRLAEFKRRKLDLNNAVQKRDEVKEQLGILKKKRFDEFMAGFNIISMTLKEMYQMITMGGNAELELVDSLDPFSEGVTFSVMPPKKSWRNITNLSGGEKTLSSLALVFALHKYKPTPLYVMDEIDAALDFRNVSIVANYIKERTKNAQFIVISLRNNMFELAQQLVGVYKRDNRTKSTTIKNIDILNRT
